Results deposited as PubChem BioAssay AID743454 (Peter MacCallum Cancer Centre, 2014).
Shown is an unselected part of about 18,000 deposited reagents. In the full data, 450 (2.5%) are marked active. 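Single biological run; no consistent viability z cut-off exists, so the class columns, not z-scores, define the calls.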 Unmarked entries are inactive.

- Purpose: 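Knock-downs lowering viability or raising caspase 3/7 activity in vorinostat-treated resistant cells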 (primary screen)
- Cells: human HCT116-VR colon cancer cells, selected for vorinostat resistance
- Reagents: siRNA pool against human genes, 40 nM siRNA pool
- Time to read-out: vorinostat for 24 h, read-out about 72 h after transfection
- Challenge: vorinostat at 2.5 µM final
- Detection: 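Two measures, CellTiter-Fluor viability and luminescent caspase 3/7 activity, each as fold change against same-plate mock wells, mean of duplicates, then screen-wide robust z-score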
- Scale: viability robust z-score: higher = more viable cells than screen typical; caspase robust z-score: higher = more caspase 3/7 activity than screen typical
- Call rule: 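Hits are knock-downs in viability class RV1/RV2 or caspase class CA1/CA2, excluding ones that killed cells in the no-drug cell-count arm; hits then retested with single siRNAs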

Depletion of SPATA7 came out at: viability hit class no change; caspase hit class no change; viability robust z-score -0.22; caspase robust z-score 0.55.
After knock-down of FAM111B, the record shows viability hit class no change; caspase hit class no change; viability robust z-score -0.35; caspase robust z-score 1.12.
For APOA4, the entry reads viability hit class no change; caspase hit class no change; viability robust z-score 0.93; caspase robust z-score 2.08.
Knock-down of RAP2A resulted in: viability hit class no change; caspase hit class no change; viability robust z-score 0.18; caspase robust z-score 0.69.
After knock-down of PRKN the results were viability hit class no change; caspase hit class no change; viability robust z-score 1.05; caspase robust z-score 4.26.
SLC9A6 scored viability hit class no change; caspase hit class no change; viability robust z-score 0.4; caspase robust z-score -1.1.
ICMT showed viability hit class no change; caspase hit class no change; viability robust z-score -0.92; caspase robust z-score 0.23.
Silencing of LRRFIP2 gave: viability hit class no change; caspase hit class no change; viability robust z-score 0.48; caspase robust z-score 0.66.
With knock-down of CDCA5, the screen gave viability hit class no change; caspase hit class no change; viability robust z-score -3.83; caspase robust z-score 0.01.
SPMIP5 scored viability hit class no change; caspase hit class no change; viability robust z-score -0.62; caspase robust z-score 0.06.
Silencing of PAGE2 came out at: viability hit class no change; caspase hit class no change; viability robust z-score 0.52; caspase robust z-score 0.82.
PSMD12 scored viability hit class RV2 (reduced viability) (active); caspase hit class no change; viability robust z-score -3.53; caspase robust z-score 3.06.
Against TNFSF12-TNFSF13 the deposit lists viability hit class no change; caspase hit class no change; viability robust z-score 0.65; caspase robust z-score -0.9.
Against ECSCR, the entry reads viability hit class no change; caspase hit class no change; viability robust z-score 0.54; caspase robust z-score -0.99.
Silencing of SRSF5 gave: viability hit class no change; caspase hit class no change; viability robust z-score -0.53; caspase robust z-score 4.29.
For DDX52, the values are viability hit class no change; caspase hit class no change; viability robust z-score -0.22; caspase robust z-score -1.02.
Knock-down of KIR2DL4 came out at: viability hit class no change; caspase hit class no change; viability robust z-score 0.61; caspase robust z-score 3.04.
Silencing of ALPK1 resulted in: viability hit class no change; caspase hit class no change; viability robust z-score -0.2; caspase robust z-score 0.77.
RAB21 showed viability hit class no change; caspase hit class no change; viability robust z-score 0.76; caspase robust z-score -0.12.
Depletion of DUSP4 came out at: viability hit class no change; caspase hit class no change; viability robust z-score -0.19; caspase robust z-score -0.83.
Silencing of PHOX2A came out at: viability hit class no change; caspase hit class no change; viability robust z-score 1.32; caspase robust z-score -0.99.
Silencing of H1-1 gave: viability hit class no change; caspase hit class no change; viability robust z-score -0.98; caspase robust z-score -0.29.
Silencing of CCDC38 gave: viability hit class no change; caspase hit class no change; viability robust z-score -0.4; caspase robust z-score 0.22.
With knock-down of ZFTRAF1, the record shows viability hit class no change; caspase hit class no change; viability robust z-score -0.97; caspase robust z-score 0.58.
SSX2 scored viability hit class no change; caspase hit class no change; viability robust z-score -1.27; caspase robust z-score -1.42.
Against MTX3, the values are viability hit class no change; caspase hit class no change; viability robust z-score -0.02; caspase robust z-score -1.08.
Against FBXO40, the entry reads viability hit class no change; caspase hit class no change; viability robust z-score -0.71; caspase robust z-score 1.68.

Entries listed above marked active (1):
PSMD12 | viability hit class = RV2 (reduced viability) (active); caspase hit class = no change; viability robust z-score = -3.53; caspase robust z-score = 3.06
